Results are given in words; binding and its absence hold for the method and conditions named. In cells and extracts the contact can be indirect. Some results given as binding are weak or reduced against the parent protein; the word gives no strength.

For the assay, the target named is T1, PHD4 (prolyl 4-hydroxylase, transmembrane), coded by P4HTM (human (endogenous in human CRC cell lines)) (UniProt Q9NXG6).
T1 sequence: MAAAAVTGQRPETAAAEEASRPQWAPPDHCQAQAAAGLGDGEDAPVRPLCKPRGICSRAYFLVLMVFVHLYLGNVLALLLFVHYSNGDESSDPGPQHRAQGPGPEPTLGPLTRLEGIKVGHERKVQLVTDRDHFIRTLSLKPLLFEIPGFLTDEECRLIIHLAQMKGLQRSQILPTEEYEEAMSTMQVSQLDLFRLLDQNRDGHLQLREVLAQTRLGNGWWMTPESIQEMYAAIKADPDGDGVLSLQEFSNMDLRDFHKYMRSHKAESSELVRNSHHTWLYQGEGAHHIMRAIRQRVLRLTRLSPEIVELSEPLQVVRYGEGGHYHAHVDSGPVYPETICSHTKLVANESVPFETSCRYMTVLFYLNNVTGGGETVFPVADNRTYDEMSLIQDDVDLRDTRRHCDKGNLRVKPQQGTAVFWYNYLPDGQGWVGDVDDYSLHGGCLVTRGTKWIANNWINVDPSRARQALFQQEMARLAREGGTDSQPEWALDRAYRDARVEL
The experiment in a line: co-IP; Co-IP Kit (Bersin); cell lysate with protease inhibitors incubated overnight at 4 °C with beads conjugated to anti-HIF1A/PHD4/NXPH4/IgG antibodies; western blot; some panels after lentiviral NXPH4 knockdown or overexpression. A general note: In western blotting, separated proteins are transferred to a membrane and probed.

B1: Neurexophilin 4 (NXPH4) (protein, UniProt O95158 24-308)
chain: QIPESGRPQYLGLRPAAAGAGAPGQQLPEPRSSDGLGVGRAWSWAWPTNHTGALARAGAAGALPAQRTKRKPSIKAARAKKIFGWGDFYFRVHTLKFSLLVTGKIVDHVNGTFSVYFRHNSSSLGNLSVSIVPPSKRVEFGGVWLPGPVPHPLQSTLALEGVLPGLGPPLGMAAAAAGPGLGGSLGGALAGPLGGALGVPGAKESRAFNCHVEYEKTNRARKHRPCLYDPSQVCFTEHTQSQAAWLCAKPFKVICIFVSFLSFDYKLVQKVCPDYNFQSEHPYFG
For B1, the binding result is “binds”.

Source of the values: article PMC11334498.
